Laboratory results taken from patent US20090099080A1.
No constants are given. Whether binding was seen depends on the method and setting. For part of these data: Binding seen in cells or lysates may run through a third protein. Some entries that bind do so weakly or less than the wild type. For part of these data: Tags and fused reporters may be left off the sequences shown.

Columns and labels:
Details in all cases: remark: other sources report otherwise
[1] = target: recombinant CypD (purified, in solution), P30405; test: GST pull down of recombinant CypD, CypD immunoblot
[2] = target: recombinant CypD (purified, in solution), P30405; test: GST pull down, cell-free, CypD immunoblot (FIG. 10A); abolished by cyclosporine A, not by geldanamycin
[3] = target: Cyclophilin D (CypD, peptidylprolyl isomerase F, ppif), endogenous protein of Raji mitochondrial extracts (human), P30405; test: co-immunoprecipitation with antibody to TRAP-1 from Raji mitochondrial extracts, Western blot; complex prevented by cyclosporine A, not by geldanamycin

| Binder | binding [1] | binding [2] | binding [3] |
| --- | --- | --- | --- |
| GST-TRAP-1, Q12931 60-704 (protein, UniProt Q12931 60-704, looked up, not shown: a dimerising Fc or GST) STQTAEDKEEPLHSIISSTESVQGSTSKHEFQAETKKLLDIVARSLYSEKEVFIRELISNASDALEKLRHKLVSDGQALPEMEIHLQTNAEKGTITIQDTGIGMTQEELVSNLGTIARSGSKAFLDALQNQAEASSKIIGQFGVGFYSAFMVADRVEVYSRSAAPGSLGYQWLSDGSGVFEIAEASGVRTGTKIIIHLKSDCKEFSSEARVRDVVTKYSNFVSFPLYLNGRRMNTLQAIWMMDPKDVREWQHEEFYRYVAQAHDKPRYTLHYKTDAPLNIRSIFYVPDMKPSMFDVSRELGSSVALYSRKVLIQTKATDILPKWLRFIRGVVDSEDIPLNLSRELLQESALIRKLRDVLQQRLIKFFIDQSKKDAEKYAKFFEDYGLFMREGIVTATEQEVKEDIAKLLRYESSALPSGQLTSLSEYASRMRAGTRNIYYLCAPNRHLAEHSPYYEAMKKKDTEVLFCFEQFDELTLLHLREFDKKKLISVETDIVVDHYKEEKFEDRSPAAECLSEKETEELMAWMRNVLGSRVTNVKVTLRLDTHPAMVTVLEMGAARHFLRMQQLAKTQEERAQLLQPTLEINPRHALIKKLNQLRASEPGLAQLLVDQIYENAMIAAGLVDDPRAMVGRLNELLVKALERH | binds | binds | – |
| TRAP-1 (TNF Receptor-Associated Protein 1), endogenous protein of Raji mitochondrial extracts, Q12931 60-704 (protein, human, UniProt Q12931 60-704, looked up) STQTAEDKEEPLHSIISSTESVQGSTSKHEFQAETKKLLDIVARSLYSEKEVFIRELISNASDALEKLRHKLVSDGQALPEMEIHLQTNAEKGTITIQDTGIGMTQEELVSNLGTIARSGSKAFLDALQNQAEASSKIIGQFGVGFYSAFMVADRVEVYSRSAAPGSLGYQWLSDGSGVFEIAEASGVRTGTKIIIHLKSDCKEFSSEARVRDVVTKYSNFVSFPLYLNGRRMNTLQAIWMMDPKDVREWQHEEFYRYVAQAHDKPRYTLHYKTDAPLNIRSIFYVPDMKPSMFDVSRELGSSVALYSRKVLIQTKATDILPKWLRFIRGVVDSEDIPLNLSRELLQESALIRKLRDVLQQRLIKFFIDQSKKDAEKYAKFFEDYGLFMREGIVTATEQEVKEDIAKLLRYESSALPSGQLTSLSEYASRMRAGTRNIYYLCAPNRHLAEHSPYYEAMKKKDTEVLFCFEQFDELTLLHLREFDKKKLISVETDIVVDHYKEEKFEDRSPAAECLSEKETEELMAWMRNVLGSRVTNVKVTLRLDTHPAMVTVLEMGAARHFLRMQQLAKTQEERAQLLQPTLEINPRHALIKKLNQLRASEPGLAQLLVDQIYENAMIAAGLVDDPRAMVGRLNELLVKALERH | – | – | binds |
